In paper PMC11699780:
Results are given in words; binding and its absence hold for the method and conditions named. In cells and extracts the contact can be indirect. Some entries that bind do so weakly or less than the wild type.

Amino acid sequences for entries named in this document (tags omitted). Residues count along the entry.
UniProt P00750, residues 36-562: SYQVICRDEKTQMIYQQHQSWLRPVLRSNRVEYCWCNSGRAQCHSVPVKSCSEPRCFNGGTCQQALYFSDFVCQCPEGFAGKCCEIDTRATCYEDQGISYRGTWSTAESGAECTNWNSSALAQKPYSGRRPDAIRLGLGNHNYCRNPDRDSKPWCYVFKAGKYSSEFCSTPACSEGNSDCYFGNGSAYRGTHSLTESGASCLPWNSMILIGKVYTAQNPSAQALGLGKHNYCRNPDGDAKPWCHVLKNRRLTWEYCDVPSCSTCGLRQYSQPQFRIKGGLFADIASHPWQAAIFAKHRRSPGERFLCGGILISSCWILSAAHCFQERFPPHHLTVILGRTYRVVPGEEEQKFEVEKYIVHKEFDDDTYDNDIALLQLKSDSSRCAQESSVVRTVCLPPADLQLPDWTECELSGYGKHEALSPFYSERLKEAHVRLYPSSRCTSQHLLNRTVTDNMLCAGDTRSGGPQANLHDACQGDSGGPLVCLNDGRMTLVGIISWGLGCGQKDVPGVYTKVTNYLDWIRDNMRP
UniProt P24821, residues 23-2201: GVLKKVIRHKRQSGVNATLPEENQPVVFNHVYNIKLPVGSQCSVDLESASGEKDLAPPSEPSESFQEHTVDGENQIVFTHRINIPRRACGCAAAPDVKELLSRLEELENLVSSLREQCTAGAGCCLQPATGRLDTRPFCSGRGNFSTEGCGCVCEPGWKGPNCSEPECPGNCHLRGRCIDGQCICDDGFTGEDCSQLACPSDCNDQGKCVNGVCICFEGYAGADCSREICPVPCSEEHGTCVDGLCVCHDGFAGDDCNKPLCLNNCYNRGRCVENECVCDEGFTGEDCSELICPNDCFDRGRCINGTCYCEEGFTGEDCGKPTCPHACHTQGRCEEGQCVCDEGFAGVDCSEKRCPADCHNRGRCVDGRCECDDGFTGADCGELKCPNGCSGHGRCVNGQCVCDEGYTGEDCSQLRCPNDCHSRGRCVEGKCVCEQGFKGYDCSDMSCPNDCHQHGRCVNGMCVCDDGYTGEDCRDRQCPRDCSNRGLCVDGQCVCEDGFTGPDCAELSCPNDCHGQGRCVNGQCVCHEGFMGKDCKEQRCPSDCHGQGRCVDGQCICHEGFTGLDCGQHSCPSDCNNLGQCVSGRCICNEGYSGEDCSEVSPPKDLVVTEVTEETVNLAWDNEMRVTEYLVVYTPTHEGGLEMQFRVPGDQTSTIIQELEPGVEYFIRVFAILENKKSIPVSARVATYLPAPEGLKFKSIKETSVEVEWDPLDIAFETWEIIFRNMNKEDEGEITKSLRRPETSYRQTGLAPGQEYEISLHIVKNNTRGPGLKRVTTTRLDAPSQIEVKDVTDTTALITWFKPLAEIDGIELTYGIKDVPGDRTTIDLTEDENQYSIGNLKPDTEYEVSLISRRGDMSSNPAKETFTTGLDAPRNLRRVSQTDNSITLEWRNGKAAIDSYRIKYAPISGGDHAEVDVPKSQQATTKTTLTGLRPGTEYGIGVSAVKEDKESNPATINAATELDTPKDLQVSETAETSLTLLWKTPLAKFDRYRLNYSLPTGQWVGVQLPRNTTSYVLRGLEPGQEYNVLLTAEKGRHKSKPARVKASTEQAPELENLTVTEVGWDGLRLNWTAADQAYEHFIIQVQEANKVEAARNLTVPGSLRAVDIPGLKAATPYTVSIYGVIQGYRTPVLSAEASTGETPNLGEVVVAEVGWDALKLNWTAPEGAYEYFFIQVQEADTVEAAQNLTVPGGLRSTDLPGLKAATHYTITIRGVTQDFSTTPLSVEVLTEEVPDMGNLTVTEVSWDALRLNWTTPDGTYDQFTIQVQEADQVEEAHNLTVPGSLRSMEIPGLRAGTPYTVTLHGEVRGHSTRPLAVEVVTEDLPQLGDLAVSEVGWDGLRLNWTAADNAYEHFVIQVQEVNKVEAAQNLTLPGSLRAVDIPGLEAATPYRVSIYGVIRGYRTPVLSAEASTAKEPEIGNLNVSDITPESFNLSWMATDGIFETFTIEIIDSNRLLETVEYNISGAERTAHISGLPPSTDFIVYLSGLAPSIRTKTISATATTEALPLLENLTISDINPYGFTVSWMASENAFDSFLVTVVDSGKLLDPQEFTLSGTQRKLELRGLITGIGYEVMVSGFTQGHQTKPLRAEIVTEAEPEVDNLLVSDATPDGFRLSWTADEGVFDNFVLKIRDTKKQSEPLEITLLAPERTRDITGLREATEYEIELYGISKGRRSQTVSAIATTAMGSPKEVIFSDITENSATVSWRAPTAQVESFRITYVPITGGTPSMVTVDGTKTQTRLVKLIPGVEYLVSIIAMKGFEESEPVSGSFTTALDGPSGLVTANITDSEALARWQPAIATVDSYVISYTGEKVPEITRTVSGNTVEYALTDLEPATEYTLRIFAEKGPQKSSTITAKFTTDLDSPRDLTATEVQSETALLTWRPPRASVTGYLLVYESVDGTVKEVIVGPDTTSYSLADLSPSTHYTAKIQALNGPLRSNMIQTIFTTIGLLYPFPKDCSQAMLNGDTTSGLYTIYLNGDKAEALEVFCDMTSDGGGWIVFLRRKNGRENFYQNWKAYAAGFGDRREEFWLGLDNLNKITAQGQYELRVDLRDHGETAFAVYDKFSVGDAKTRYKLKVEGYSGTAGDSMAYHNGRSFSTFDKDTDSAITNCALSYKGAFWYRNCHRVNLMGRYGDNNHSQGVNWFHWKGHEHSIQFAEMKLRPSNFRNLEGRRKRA

Target: PLAT (t-PA) (human (endogenous in PC9GR)) (UniProt P00750)
Test: co-IP; cells lysed in IP lysis buffer 1 h at 4 °C; cleared supernatant rotated with antibodies and protein A beads 4 h at 4 °C; washed four times; antibodies anti-PLAT, anti-ITGB3, anti-TNC, anti-IgG; which protein was precipitated is not told

Tenascin-C (TNC) (from UniProt P24821 23-2201)
binding: binds
